For the data set, the target named is T1, NhaR-His6 (Escherichia coli) (UniProt P0A9G2).
T1 sequence (looked up, limits assumed): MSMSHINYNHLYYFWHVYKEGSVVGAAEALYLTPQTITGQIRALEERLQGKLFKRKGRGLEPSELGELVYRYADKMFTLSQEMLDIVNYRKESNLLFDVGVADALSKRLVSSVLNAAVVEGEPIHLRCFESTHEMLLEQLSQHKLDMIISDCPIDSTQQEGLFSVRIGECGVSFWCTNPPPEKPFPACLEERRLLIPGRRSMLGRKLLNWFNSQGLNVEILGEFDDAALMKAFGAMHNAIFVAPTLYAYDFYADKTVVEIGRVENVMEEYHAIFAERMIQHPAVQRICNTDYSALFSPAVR
The data set can be described thus: EMSA. The conditions noted are these: shifted at 125 and 250 nM NhaR, bigger shifts at higher concentrations; LightShift Chemiluminescent EMSA Kit (Pierce) as per manufacturer, 5% PAGE; pH and temperature not stated; recombinant protein; protein details: His6; probe letters rebuilt from the primers and the genome.

The values that follow come from article PMC6307784.

Construct, isoform or probe ends are uncertain for at least one entry. Protein sequences can lack the tags named with them.

As to “AAAGGTACCGAGCGTGATATCGGCAGTGCTATAAAATACGTTAATATAATGACCAATAAATATTTTTATCATGAATGTTTTTTGCCCGTATTGTTCGGGTTAATTAATGTTACATATTCAGCGGGCTGATTTTCATTTTTGCTGAATAAAGTCAATTTTTGTCACATTTCATCGTAGGGCTTACTGTGAAACGATCCGGTAAGCCGTTGGTGACGGGCGTGACCATAACTGTGGACAATCGAATTGACAAAAACGAGAGAAAAATCGAATACCCACCATTTTTAACGTTTCAAAGTTGCAATAAAAACCGCTAATATACGAATGACTAACTATCAGTAGCGTTATCCCTATTTCTGGAGATATTCCTTTGATCAACGTTCTACTTGTTGATGACCAC (double strand) [uvrY promoter 388 bp (-358 to +30)]”, the binding result is reported as “binds”.
